Results deposited as PubChem BioAssay AID1159584 (Peter MacCallum Cancer Centre, 2016)
Screen: 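Knock-downs that harm CDH1-null cells more than parental MCF10A cells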 (primary screen). System: human MCF10A breast epithelial cells, parental and CDH1-null. Reagents: siRNA against human genes. Read-out: 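ATP luminescence (CellTiter-Glo) viability per line relative to mean mock wells over all plates, and the ratio of CDH1-null to parental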. Reading the numbers: CDH1-null / parental viability ratio: higher = CDH1-null cells survive relatively better than parental; CDH1-null viability vs mock: higher = more viable CDH1-null cells.
In all, the deposit lists about 18,000 reagents; shown is a random part of them. Further read-outs or replicates are left out here. No sequences are given here. Not given: the amount of reagent, the time to read-out.

Gene | CDH1-null / parental viability ratio | CDH1-null viability vs mock (fraction of mock)
ANKRD35 | 0.89 | 0.8
CCL2 | 0.94 | 0.58
PRMT5 | 1.12 | 0.92
HIVEP3 | 1.1 | 0.92
AKAP11 | 1 | 0.76
RTL4 | 1.05 | 0.61
RMDN2 | 1.2 | 0.9
TMEM14A | 1.05 | 0.68
ELP1 | 0.96 | 0.94
LRRIQ1 | 0.91 | 0.82
EIF3E | 1.38 | 0.66
C19orf44 | 1.14 | 0.58
MDM4 | 0.74 | 0.5
FNDC5 | 1.52 | 0.79
EPHX1 | 0.89 | 0.62
ISOC2 | 1.05 | 0.67
KMT5B | 1.04 | 1
EMC4 | 0.86 | 0.66
IL18R1 | 0.78 | 0.72
SLC25A39 | 0.82 | 0.72
ASF1B | 1.05 | 0.8
SLC35F5 | 0.97 | 0.74
ZNF418 | 0.9 | 0.61
CCL4 | 1.14 | 0.89
STAT6 | 1.04 | 0.84
OCM2 | 1.1 | 1.01
DCUN1D1 | 1.19 | 0.95
NBPF1 | 1.27 | 0.84

Sorted by “CDH1-null viability vs mock (fraction of mock)” (lowest first): 4 of the entries above
Gene | CDH1-null / parental viability ratio | CDH1-null viability vs mock (fraction of mock)
IL18R1 | 0.78 | 0.72
SLC25A39 | 0.82 | 0.72
SLC35F5 | 0.97 | 0.74
ASF1B | 1.05 | 0.8
